Laboratory results: publication PMC8211822, “CRISPR-Associated Primase-Polymerases are implicated in prokaryotic CRISPR-Cas adaptation” (Nature Communications, 2021)
Results are given in words; binding and its absence hold for the method and conditions named. Some binding calls cover weakened binding; strength is not graded here. Sequences can lack the tags named with a protein. Values belong to the binder of their own block, whether it stands above or below them.

Columns and labels:
Test in all cases: two-hybrid; GAL4 activation-domain and DNA-binding-domain fusions co-transformed into S. cerevisiae PJ69-4A; drop tests on medium lacking leucine, tryptophan and histidine (with 3-AT) or adenine; 3 days at 30 °C
[1] = target: T1, MpCAPP ΔCTD fragment (aa. 1-360), GAL4 fusion (Marinitoga piezophila) (UniProt H2J4R1)
T1 sequence: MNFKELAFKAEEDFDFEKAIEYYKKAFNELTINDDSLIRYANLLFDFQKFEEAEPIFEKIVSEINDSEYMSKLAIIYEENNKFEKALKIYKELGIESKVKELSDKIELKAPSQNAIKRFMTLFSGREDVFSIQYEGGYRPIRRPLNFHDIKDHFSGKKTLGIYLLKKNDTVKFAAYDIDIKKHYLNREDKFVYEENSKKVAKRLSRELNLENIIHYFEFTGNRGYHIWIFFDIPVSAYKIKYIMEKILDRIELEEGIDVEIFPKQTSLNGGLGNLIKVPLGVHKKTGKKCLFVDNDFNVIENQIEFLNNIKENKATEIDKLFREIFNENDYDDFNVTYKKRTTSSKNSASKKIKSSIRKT

[2] = target: T2, Marinitoga piezophila CRISPR-associated Prim-Pol (MpCAPP), full length, GAL4 fusion (Marinitoga piezophila) (UniProt H2J4R1)
T2 sequence: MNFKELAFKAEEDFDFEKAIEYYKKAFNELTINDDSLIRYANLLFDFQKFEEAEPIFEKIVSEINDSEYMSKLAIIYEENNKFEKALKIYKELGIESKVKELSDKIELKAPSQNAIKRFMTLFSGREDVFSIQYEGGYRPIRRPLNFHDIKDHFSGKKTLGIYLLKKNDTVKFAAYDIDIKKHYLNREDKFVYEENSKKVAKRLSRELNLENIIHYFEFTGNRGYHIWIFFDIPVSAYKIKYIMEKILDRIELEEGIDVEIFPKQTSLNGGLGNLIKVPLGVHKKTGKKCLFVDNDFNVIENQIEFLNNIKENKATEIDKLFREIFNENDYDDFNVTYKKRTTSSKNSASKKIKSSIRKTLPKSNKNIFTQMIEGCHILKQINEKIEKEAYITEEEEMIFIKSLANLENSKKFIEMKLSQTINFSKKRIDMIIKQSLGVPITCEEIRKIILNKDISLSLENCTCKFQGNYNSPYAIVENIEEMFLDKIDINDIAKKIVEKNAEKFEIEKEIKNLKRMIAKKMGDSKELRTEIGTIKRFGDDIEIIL

[3] = target: Marinitoga piezophila integration host factor (MpIHF), GAL4 fusion (Marinitoga piezophila) (UniProt H2J7L5)
[4] = target: MpCAPP CTD fragment (aa. 360-546), GAL4 fusion (Marinitoga piezophila) (UniProt H2J4R1)
[5] = target: T3, Marinitoga piezophila Argonaute (MpAgo), GAL4 fusion (Marinitoga piezophila) (UniProt H2J4R4)
T3 sequence: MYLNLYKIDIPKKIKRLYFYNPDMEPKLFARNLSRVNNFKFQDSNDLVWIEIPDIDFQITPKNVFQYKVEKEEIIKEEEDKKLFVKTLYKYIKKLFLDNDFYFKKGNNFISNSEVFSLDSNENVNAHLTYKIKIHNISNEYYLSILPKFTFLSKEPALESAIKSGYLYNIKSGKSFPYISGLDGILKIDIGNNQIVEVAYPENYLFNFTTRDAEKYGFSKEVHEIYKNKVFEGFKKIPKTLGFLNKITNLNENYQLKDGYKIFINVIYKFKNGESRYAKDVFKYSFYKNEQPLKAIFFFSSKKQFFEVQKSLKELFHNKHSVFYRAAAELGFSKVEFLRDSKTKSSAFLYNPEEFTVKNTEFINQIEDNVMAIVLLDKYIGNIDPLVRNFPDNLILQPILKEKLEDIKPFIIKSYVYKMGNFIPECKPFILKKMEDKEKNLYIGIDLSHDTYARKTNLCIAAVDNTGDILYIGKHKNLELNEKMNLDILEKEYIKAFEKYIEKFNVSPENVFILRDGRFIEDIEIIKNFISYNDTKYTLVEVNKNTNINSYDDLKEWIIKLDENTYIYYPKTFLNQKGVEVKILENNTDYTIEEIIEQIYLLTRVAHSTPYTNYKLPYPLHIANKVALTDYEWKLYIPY

binding [1]: binds weakly
binding [2]: binds weakly
B1: MpCAPP ΔCTD fragment (aa. 1-360), GAL4 fusion (domain or fragment, UniProt H2J4R1 1-360)
chain: T1 sequence

binding [3]: binds
B2: Marinitoga piezophila integration host factor (MpIHF), GAL4 fusion (protein, UniProt H2J7L5 1-90)
chain: MNKKELVSALAEKLSVTKKEAALFVDSFVDVVSEALSKGDNVKIVGFGTFEVVERKPRKGVNPQTKETIEIPGGKVPKFKAGKELKAKVK

binding [1]: binds
B3: MpCAPP TPR fragment (aa. 1-100), GAL4 fusion (domain or fragment, UniProt H2J4R1 1-100)
chain: MNFKELAFKAEEDFDFEKAIEYYKKAFNELTINDDSLIRYANLLFDFQKFEEAEPIFEKIVSEINDSEYMSKLAIIYEENNKFEKALKIYKELGIESKVK

binding [4]: binds
binding [2]: binds
binding [5]: binds
B4: MpCAPP CTD fragment (aa. 360-546), GAL4 fusion (domain or fragment, UniProt H2J4R1 360-546)
chain: TLPKSNKNIFTQMIEGCHILKQINEKIEKEAYITEEEEMIFIKSLANLENSKKFIEMKLSQTINFSKKRIDMIIKQSLGVPITCEEIRKIILNKDISLSLENCTCKFQGNYNSPYAIVENIEEMFLDKIDINDIAKKIVEKNAEKFEIEKEIKNLKRMIAKKMGDSKELRTEIGTIKRFGDDIEIIL

binding [2]: binds
binding [5]: binds
B5: Marinitoga piezophila CRISPR-associated Prim-Pol (MpCAPP), full length, GAL4 fusion (enzyme, UniProt H2J4R1 1-546)
chain: T2 sequence

binding [2]: binds
B6: AD-MpCAPP fused to MBP (AD-MpCAPP-MBP) (enzyme, UniProt H2J4R1 1-546)
chain: T2 sequence
